Laboratory results: patent US6927223B1, “Use of serotonin agents for adjunct therapy in the treatment of cancer” (priority 2000, dated 2005)

Legend:
B16BL6 melanoma cells = experiment: cells; conditions: Mus musculus, B16-BL6, read-out: fluoxetine level causing 50% inhibition of tritiated thymidine incorporation
A375 melanoma cells = experiment: cells; conditions: Homo sapiens, A-375, read-out: fluoxetine level causing 50% inhibition of tritiated thymidine incorporation

CNCCC(Oc1ccc(C(F)(F)F)cc1)c1ccccc1 (centres unmarked) [fluoxetine]
IC50 (B16BL6 melanoma cells): 4 to 15 µM
IC50 (A375 melanoma cells): 4 to 15 µM
